These are yes or no findings as the source states them, for the method shown. Binding calls can cover weak binding; strength is not graded here.
Columns and labels:
insulin [1] = assay: far-UV CD spectroscopy; monomeric form of the mammalian protein (0.5 mg/mL) mixed with vicilin amyloid fibrils (0.1 mg/mL), incubated for 2 h; interaction read from a change in the CD spectrum; both purified
insulin [2] = assay: far-UV CD spectroscopy; aggregated or fibrillar form of the mammalian protein (0.5 mg/mL; for lysozyme during fibrillogenesis and after its completion) mixed with vicilin amyloid fibrils (0.1 mg/mL), incubated for 2 h; interaction read from a change in the CD spectrum; both purified

B1: 7S seed storage globulin vicilin of the garden pea Pisum sativum L. (protein, UniProt P13918 29-459)
chain: RSDPQNPFIFKSNKFQTLFENENGHIRLLQKFDQRSKIFENLQNYRLLEYKSKPHTIFLPQHTDADYILVVLSGKAILTVLKPDDRNSFNLERGDTIKLPAGTIAYLVNRDDNEELRVLDLAIPVNRPGQLQSFLLSGNQNQQNYLSGFSKNILEASFNTDYEEIEKVLLEEHEKETQHRRSLKDKRQQSQEENVIVKLSRGQIEELSKNAKSTSKKSVSSESEPFNLRSRGPIYSNEFGKFFEITPEKNPQLQDLDIFVNSVEIKEGSLLLPHYNSRAIVIVTVNEGKGDFELVGQRNENQQEQRKEDDEEEEQGEEEINKQVQNYKAKLSSGDVFVIPAGHPVAVKASSNLDLLGFGINAENNQRNFLAGDEDNVISQIQRPVKELAFPGSAQEVDRILENQKQSHFADAQPQQRERGSRETRDRLSSV
For B1, the binding (insulin [1]) was “binds weakly” and the binding (insulin [2]) was “binds”.

From paper PMC10454621
